The list is a part of this screen's results and no random one: it gathers some chemical classes. Not every dose and run of a compound is shown. T/C is the treated group as % of the vehicle group. Some entries give survivors of the animals treated and no T/C: the source holds a T/C of zero for them, seemingly a mark for toxic or unscored doses. Survivors were counted at the toxicity check, usually on the fifth day, unless a day is given; later deaths do not show. Schedules are NCI's codes, read here as Q, the interval in days (D) or hours (H), X, the number of doses. Where survival is the endpoint, this PubChem deposit counts one and a half times the control or more as active, and values a quarter to a half above the control carry no call in these data; other NCI protocols may use other cut-offs. Counts like (3×) count equal records among those shown. Some entries hold several experiments; their values stand side by side, smallest first. Some T/C values carry the count of animals alive at the toxicity check (mostly the fifth day); without a count or a note in brackets, all were alive then.
Tested on: L1210 leukemia ip in BDF1 mice, survival T/C
Assay: NCI In Vivo Anticancer Drug Screen. Data for tumor model L1210 Leukemia (intraperitoneal) in B6D2F1 (BDF1) mice
Settings: higher T/C = longer survival

`NCCF` was tested, and the T/C (T/C endpoint: mean survival time, dose: 1.25 mg/kg/injection, schedule: Q01DX001 (ip), vehicle: saline) was 95 % of control, the T/C (T/C endpoint: mean survival time, dose: 1.25 mg/kg/injection, schedule: Q04DX003 (ip), vehicle: Klucel (hydroxypropylcellulose) (HPC)) was 94 % of control and the T/C (T/C endpoint: mean survival time, dose: 1.5 mg/kg/injection, schedule: Q01DX009 (ip), vehicle: saline) was 113 % of control. For the same molecule, the T/C (T/C endpoint: mean survival time, dose: 2.2 mg/kg/injection, schedule: Q01DX009 (ip), vehicle: saline) was 115 and 125 % of control, the T/C (T/C endpoint: mean survival time, dose: 2.2 mg/kg/injection, schedule: Q04DX003 (ip), vehicle: saline) was 108 % of control and the T/C (T/C endpoint: mean survival time, dose: 2.5 mg/kg/injection, schedule: Q01DX001 (ip), vehicle: saline) was 101 % of control. For the same molecule, the T/C (T/C endpoint: mean survival time, dose: 2.5 mg/kg/injection, schedule: Q04DX003 (ip), vehicle: Klucel (hydroxypropylcellulose) (HPC)) was 96 % of control, the T/C (T/C endpoint: mean survival time, dose: 2.5 mg/kg/injection, schedule: Q04DX003 (ip), vehicle: saline) was 97 % of control and the T/C (T/C endpoint: mean survival time, dose: 3.3 mg/kg/injection, schedule: Q01DX009 (ip), vehicle: saline) was 127 and 142 % of control. The T/C (T/C endpoint: mean survival time, dose: 3.3 mg/kg/injection, schedule: Q04DX003 (ip), vehicle: saline) was 120 % of control, the T/C (T/C endpoint: mean survival time, dose: 4.1 mg/kg/injection, schedule: Q01DX009 (ip), vehicle: saline) was 142 % of control [4 of 6 alive] and the T/C (T/C endpoint: mean survival time, dose: 5.0 mg/kg/injection, schedule: Q01DX001 (ip), vehicle: saline) was 101 % of control. For the same molecule, the survivor count (T/C endpoint: mean survival time, dose: 5.0 mg/kg/injection, schedule: Q01DX009 (ip), vehicle: saline) was 3 of 6, the T/C (T/C endpoint: mean survival time, dose: 5.0 mg/kg/injection, schedule: Q04DX003 (ip), vehicle: Klucel (hydroxypropylcellulose) (HPC)) was 93 % of control and the T/C (T/C endpoint: mean survival time, dose: 5.0 mg/kg/injection, schedule: Q04DX003 (ip), vehicle: saline) was 138 % of control (2×). For the same molecule, the survivor count (T/C endpoint: mean survival time, dose: 7.5 mg/kg/injection, schedule: Q01DX009 (ip), vehicle: saline) was 0 of 6, the survivor count (T/C endpoint: mean survival time, dose: 7.5 mg/kg/injection, schedule: Q04DX003 (ip), vehicle: saline) was 2 of 6 and the T/C (T/C endpoint: mean survival time, dose: 10.0 mg/kg/injection, schedule: Q01DX001 (ip), vehicle: saline) was 114 % of control [5 of 6 alive]. For the same molecule, the T/C (T/C endpoint: mean survival time, dose: 10.0 mg/kg/injection, schedule: Q04DX003 (ip), vehicle: Klucel (hydroxypropylcellulose) (HPC)) was 107 % of control, the survivor count (T/C endpoint: mean survival time, dose: 10.0 mg/kg/injection, schedule: Q04DX003 (ip), vehicle: saline) was 0 of 6 and the survivor count (T/C endpoint: mean survival time, dose: 20.0 mg/kg/injection, schedule: Q01DX001 (ip), vehicle: saline) was 2 of 6.
With `CC[P+]1(c2ccccc2)CCC(C)c2ccccc21.F[P-](F)(F)(F)(F)F` (stereo not given) the survivor count (T/C endpoint: mean survival time, dose: 25.0 mg/kg/injection, schedule: Q04DX002 (ip), vehicle: saline with Tween-80) was 0 of 3, the survivor count (T/C endpoint: mean survival time, dose: 50.0 mg/kg/injection, schedule: Q04DX002 (ip), vehicle: saline with Tween-80) was 0 of 3 and the survivor count (T/C endpoint: mean survival time, dose: 100.0 mg/kg/injection, schedule: Q04DX002 (ip), vehicle: saline with Tween-80) was 0 of 3.
In the case of `COP(=S)(Cl)OC`, the T/C (T/C endpoint: mean survival time, dose: 75.0 mg/kg/injection, schedule: Q01DX001 (ip), vehicle: saline) is reported as 94 % of control, the T/C (T/C endpoint: mean survival time, dose: 150.0 mg/kg/injection, schedule: Q01DX001 (ip), vehicle: saline) is reported as 90 % of control and the survivor count (T/C endpoint: mean survival time, dose: 300.0 mg/kg/injection, schedule: Q01DX001 (ip), vehicle: saline) is reported as 1 of 6.
With `CC(Cl)CN(CC(C)Cl)C(=O)OCC(N)C(=O)O` (stereo not given) the T/C (T/C endpoint: mean survival time, dose: 12.5 mg/kg/injection, schedule: Q01DX009 (ip), vehicle: water) was 98 % of control, the T/C (T/C endpoint: mean survival time, dose: 25.0 mg/kg/injection, schedule: Q01DX001 (ip), vehicle: water) was 102 % of control and the T/C (T/C endpoint: mean survival time, dose: 25.0 mg/kg/injection, schedule: Q01DX009 (ip), vehicle: water) was 98 % of control. For the same molecule, the T/C (T/C endpoint: mean survival time, dose: 50.0 mg/kg/injection, schedule: Q01DX001 (ip), vehicle: water) was 102 % of control, the T/C (T/C endpoint: mean survival time, dose: 50.0 mg/kg/injection, schedule: Q01DX009 (ip), vehicle: water) was 98 % of control and the T/C (T/C endpoint: mean survival time, dose: 100.0 mg/kg/injection, schedule: Q01DX001 (ip), vehicle: water) was 95 % of control. The T/C (T/C endpoint: mean survival time, dose: 100.0 mg/kg/injection, schedule: Q01DX009 (ip), vehicle: water) was 100 % of control, the T/C (T/C endpoint: mean survival time, dose: 200.0 mg/kg/injection, schedule: Q01DX001 (ip), vehicle: water) was 98 % of control and the T/C (T/C endpoint: mean survival time, dose: 200.0 mg/kg/injection, schedule: Q01DX009 (ip), vehicle: water) was 101 % of control. The survivor count (T/C endpoint: mean survival time, dose: 400.0 mg/kg/injection, schedule: Q01DX001 (ip), vehicle: water) was 1 of 10, the survivor count (T/C endpoint: mean survival time, dose: 400.0 mg/kg/injection, schedule: Q01DX009 (ip), vehicle: water) was 2 of 10 and the T/C (T/C endpoint: median survival time, dose: 12.5 mg/kg/injection, schedule: Q01DX009 (ip), vehicle: water) was 100 % of control. For the same molecule, the T/C (T/C endpoint: median survival time, dose: 25.0 mg/kg/injection, schedule: Q01DX001 (ip), vehicle: water) was 90 % of control, the T/C (T/C endpoint: median survival time, dose: 25.0 mg/kg/injection, schedule: Q01DX009 (ip), vehicle: water) was 100 % of control and the T/C (T/C endpoint: median survival time, dose: 25.0 mg/kg/injection, schedule: Q04DX003 (ip), vehicle: water) was 95 % of control. For the same molecule, the T/C (T/C endpoint: median survival time, dose: 50.0 mg/kg/injection, schedule: Q01DX001 (ip), vehicle: water) was 90 % of control, the T/C (T/C endpoint: median survival time, dose: 50.0 mg/kg/injection, schedule: Q01DX009 (ip), vehicle: water, evaluated on day 15) was 100 % of control and the T/C (T/C endpoint: median survival time, dose: 50.0 mg/kg/injection, schedule: Q01DX009 (ip), vehicle: water, evaluated on day 16) was 90 % of control. The T/C (T/C endpoint: median survival time, dose: 50.0 mg/kg/injection, schedule: Q04DX003 (ip), vehicle: water, evaluated on day 15) was 100 % of control, the T/C (T/C endpoint: median survival time, dose: 50.0 mg/kg/injection, schedule: Q04DX003 (ip), vehicle: water, evaluated on day 16) was 95 % of control and the T/C (T/C endpoint: median survival time, dose: 100.0 mg/kg/injection, schedule: Q01DX001 (ip), vehicle: water, evaluated on day 15) was 100 % of control. The T/C (T/C endpoint: median survival time, dose: 100.0 mg/kg/injection, schedule: Q01DX001 (ip), vehicle: water, evaluated on day 16) was 100 % of control, the T/C (T/C endpoint: median survival time, dose: 100.0 mg/kg/injection, schedule: Q01DX009 (ip), vehicle: water, evaluated on day 15) was 100 % of control and the T/C (T/C endpoint: median survival time, dose: 100.0 mg/kg/injection, schedule: Q01DX009 (ip), vehicle: water, evaluated on day 16) was 95 % of control. The T/C (T/C endpoint: median survival time, dose: 100.0 mg/kg/injection, schedule: Q04DX003 (ip), vehicle: water, evaluated on day 15) was 100 % of control, the T/C (T/C endpoint: median survival time, dose: 100.0 mg/kg/injection, schedule: Q04DX003 (ip), vehicle: water, evaluated on day 16) was 90 % of control and the T/C (T/C endpoint: median survival time, dose: 200.0 mg/kg/injection, schedule: Q01DX001 (ip), vehicle: water, evaluated on day 15) was 100 % of control. For the same molecule, the T/C (T/C endpoint: median survival time, dose: 200.0 mg/kg/injection, schedule: Q01DX001 (ip), vehicle: water, evaluated on day 16) was 100 % of control, the T/C (T/C endpoint: median survival time, dose: 200.0 mg/kg/injection, schedule: Q01DX009 (ip), vehicle: water, evaluated on day 15) was 100 % of control and the T/C (T/C endpoint: median survival time, dose: 200.0 mg/kg/injection, schedule: Q01DX009 (ip), vehicle: water, evaluated on day 16) was 90 % of control. The T/C (T/C endpoint: median survival time, dose: 200.0 mg/kg/injection, schedule: Q04DX003 (ip), vehicle: water, evaluated on day 15) was 100 % of control, the T/C (T/C endpoint: median survival time, dose: 200.0 mg/kg/injection, schedule: Q04DX003 (ip), vehicle: water, evaluated on day 16) was 90 % of control and the T/C (T/C endpoint: median survival time, dose: 400.0 mg/kg/injection, schedule: Q01DX001 (ip), vehicle: water, evaluated on day 15) was 100 % of control. The T/C (T/C endpoint: median survival time, dose: 400.0 mg/kg/injection, schedule: Q01DX001 (ip), vehicle: water, evaluated on day 16) was 100 % of control, the T/C (T/C endpoint: median survival time, dose: 400.0 mg/kg/injection, schedule: Q01DX009 (ip), vehicle: water) was 100 % of control and the T/C (T/C endpoint: median survival time, dose: 400.0 mg/kg/injection, schedule: Q04DX003 (ip), vehicle: water, evaluated on day 15) was 105 % of control. The T/C (T/C endpoint: median survival time, dose: 400.0 mg/kg/injection, schedule: Q04DX003 (ip), vehicle: water, evaluated on day 16) was 90 % of control, the T/C (T/C endpoint: median survival time, dose: 800.0 mg/kg/injection, schedule: Q01DX001 (ip), vehicle: water) was 100 % of control and the T/C (T/C endpoint: median survival time, dose: 800.0 mg/kg/injection, schedule: Q01DX009 (ip), vehicle: water) was 111 % of control. The T/C (T/C endpoint: median survival time, dose: 800.0 mg/kg/injection, schedule: Q04DX003 (ip), vehicle: water) was 111 % of control, the T/C (T/C endpoint: median survival time, dose: 1600.0 mg/kg/injection, schedule: Q01DX001 (ip), vehicle: water) was 100 % of control and the T/C (T/C endpoint: median survival time, dose: 1600.0 mg/kg/injection, schedule: Q04DX003 (ip), vehicle: water) was 111 % of control. The T/C (T/C endpoint: median survival time, dose: 3200.0 mg/kg/injection, schedule: Q01DX001 (ip), vehicle: water) was 111 % of control.

From PubChem BioAssay AID248 (DTP/NCI, 2004)
